# Laboratory results from the supplement of paper PMC6411743.
# Amino acid sequences for entries named in this document (tags omitted). A change or cut given only in a name is not applied to a line headed by its entry.
# UniProt P49247: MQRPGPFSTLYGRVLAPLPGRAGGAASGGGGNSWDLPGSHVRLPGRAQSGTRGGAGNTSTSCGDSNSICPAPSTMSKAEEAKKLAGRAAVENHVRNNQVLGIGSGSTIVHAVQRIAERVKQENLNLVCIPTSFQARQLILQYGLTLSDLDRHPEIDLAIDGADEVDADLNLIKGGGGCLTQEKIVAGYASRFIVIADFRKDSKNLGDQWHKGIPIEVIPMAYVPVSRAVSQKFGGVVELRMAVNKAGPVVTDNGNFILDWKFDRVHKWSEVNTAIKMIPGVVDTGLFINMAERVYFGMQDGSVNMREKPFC
# UniProt P49795: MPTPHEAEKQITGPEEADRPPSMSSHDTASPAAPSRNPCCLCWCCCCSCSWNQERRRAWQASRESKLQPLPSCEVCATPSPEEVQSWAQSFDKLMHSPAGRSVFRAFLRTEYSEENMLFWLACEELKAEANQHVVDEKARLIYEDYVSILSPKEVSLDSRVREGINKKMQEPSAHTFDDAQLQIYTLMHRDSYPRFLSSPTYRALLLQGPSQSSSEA
# UniProt P42566: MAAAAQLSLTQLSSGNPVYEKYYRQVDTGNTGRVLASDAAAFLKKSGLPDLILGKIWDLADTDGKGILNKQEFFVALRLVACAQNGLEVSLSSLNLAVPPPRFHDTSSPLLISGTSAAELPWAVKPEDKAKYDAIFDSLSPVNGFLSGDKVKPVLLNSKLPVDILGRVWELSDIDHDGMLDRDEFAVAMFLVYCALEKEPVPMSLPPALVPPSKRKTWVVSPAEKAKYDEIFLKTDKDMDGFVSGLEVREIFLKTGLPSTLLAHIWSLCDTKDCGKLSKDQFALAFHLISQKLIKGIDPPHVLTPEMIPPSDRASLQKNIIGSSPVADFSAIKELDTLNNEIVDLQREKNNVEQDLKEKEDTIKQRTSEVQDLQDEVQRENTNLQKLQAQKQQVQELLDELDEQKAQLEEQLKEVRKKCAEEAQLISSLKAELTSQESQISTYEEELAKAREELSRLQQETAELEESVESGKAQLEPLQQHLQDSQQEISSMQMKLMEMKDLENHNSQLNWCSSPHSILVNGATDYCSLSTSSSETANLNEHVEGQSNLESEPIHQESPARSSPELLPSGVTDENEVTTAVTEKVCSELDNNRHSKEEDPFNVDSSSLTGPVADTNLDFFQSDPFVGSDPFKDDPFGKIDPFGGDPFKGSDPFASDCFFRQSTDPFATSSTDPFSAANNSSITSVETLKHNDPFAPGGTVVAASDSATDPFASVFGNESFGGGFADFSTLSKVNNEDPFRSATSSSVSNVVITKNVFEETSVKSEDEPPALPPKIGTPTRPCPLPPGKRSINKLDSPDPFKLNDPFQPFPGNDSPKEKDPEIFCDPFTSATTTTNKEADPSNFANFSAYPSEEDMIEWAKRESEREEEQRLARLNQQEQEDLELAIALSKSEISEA
# UniProt P43897: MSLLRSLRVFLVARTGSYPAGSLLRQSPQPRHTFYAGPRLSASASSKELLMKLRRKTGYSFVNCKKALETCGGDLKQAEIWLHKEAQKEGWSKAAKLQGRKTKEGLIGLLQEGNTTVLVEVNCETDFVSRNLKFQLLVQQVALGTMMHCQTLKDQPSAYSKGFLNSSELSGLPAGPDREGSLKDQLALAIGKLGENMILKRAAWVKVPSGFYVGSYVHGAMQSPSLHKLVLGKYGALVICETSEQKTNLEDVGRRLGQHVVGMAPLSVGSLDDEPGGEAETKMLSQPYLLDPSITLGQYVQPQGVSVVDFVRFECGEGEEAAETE
# UniProt P50443: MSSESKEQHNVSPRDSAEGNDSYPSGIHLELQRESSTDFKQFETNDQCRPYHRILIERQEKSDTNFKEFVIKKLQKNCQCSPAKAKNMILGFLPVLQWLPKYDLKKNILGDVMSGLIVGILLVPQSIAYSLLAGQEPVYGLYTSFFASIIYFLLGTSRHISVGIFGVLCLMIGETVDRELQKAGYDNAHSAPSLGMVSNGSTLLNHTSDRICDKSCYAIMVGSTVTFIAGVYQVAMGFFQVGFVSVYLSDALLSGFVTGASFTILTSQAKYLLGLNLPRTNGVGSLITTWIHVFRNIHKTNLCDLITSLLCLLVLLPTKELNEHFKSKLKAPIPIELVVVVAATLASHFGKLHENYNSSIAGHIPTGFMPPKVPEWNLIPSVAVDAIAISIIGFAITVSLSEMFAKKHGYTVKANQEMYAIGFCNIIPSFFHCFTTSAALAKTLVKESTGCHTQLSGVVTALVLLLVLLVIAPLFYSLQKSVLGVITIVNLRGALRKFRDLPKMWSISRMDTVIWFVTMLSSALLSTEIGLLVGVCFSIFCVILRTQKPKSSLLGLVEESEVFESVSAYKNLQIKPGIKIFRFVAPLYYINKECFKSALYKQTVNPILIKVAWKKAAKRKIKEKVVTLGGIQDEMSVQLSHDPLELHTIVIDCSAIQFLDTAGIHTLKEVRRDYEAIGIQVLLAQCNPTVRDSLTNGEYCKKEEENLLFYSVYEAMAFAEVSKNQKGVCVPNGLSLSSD
# UniProt P41223: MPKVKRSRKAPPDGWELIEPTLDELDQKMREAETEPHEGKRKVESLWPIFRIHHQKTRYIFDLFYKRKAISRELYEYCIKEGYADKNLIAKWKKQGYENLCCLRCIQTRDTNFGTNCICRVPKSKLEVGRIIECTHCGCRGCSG
# UniProt P50851: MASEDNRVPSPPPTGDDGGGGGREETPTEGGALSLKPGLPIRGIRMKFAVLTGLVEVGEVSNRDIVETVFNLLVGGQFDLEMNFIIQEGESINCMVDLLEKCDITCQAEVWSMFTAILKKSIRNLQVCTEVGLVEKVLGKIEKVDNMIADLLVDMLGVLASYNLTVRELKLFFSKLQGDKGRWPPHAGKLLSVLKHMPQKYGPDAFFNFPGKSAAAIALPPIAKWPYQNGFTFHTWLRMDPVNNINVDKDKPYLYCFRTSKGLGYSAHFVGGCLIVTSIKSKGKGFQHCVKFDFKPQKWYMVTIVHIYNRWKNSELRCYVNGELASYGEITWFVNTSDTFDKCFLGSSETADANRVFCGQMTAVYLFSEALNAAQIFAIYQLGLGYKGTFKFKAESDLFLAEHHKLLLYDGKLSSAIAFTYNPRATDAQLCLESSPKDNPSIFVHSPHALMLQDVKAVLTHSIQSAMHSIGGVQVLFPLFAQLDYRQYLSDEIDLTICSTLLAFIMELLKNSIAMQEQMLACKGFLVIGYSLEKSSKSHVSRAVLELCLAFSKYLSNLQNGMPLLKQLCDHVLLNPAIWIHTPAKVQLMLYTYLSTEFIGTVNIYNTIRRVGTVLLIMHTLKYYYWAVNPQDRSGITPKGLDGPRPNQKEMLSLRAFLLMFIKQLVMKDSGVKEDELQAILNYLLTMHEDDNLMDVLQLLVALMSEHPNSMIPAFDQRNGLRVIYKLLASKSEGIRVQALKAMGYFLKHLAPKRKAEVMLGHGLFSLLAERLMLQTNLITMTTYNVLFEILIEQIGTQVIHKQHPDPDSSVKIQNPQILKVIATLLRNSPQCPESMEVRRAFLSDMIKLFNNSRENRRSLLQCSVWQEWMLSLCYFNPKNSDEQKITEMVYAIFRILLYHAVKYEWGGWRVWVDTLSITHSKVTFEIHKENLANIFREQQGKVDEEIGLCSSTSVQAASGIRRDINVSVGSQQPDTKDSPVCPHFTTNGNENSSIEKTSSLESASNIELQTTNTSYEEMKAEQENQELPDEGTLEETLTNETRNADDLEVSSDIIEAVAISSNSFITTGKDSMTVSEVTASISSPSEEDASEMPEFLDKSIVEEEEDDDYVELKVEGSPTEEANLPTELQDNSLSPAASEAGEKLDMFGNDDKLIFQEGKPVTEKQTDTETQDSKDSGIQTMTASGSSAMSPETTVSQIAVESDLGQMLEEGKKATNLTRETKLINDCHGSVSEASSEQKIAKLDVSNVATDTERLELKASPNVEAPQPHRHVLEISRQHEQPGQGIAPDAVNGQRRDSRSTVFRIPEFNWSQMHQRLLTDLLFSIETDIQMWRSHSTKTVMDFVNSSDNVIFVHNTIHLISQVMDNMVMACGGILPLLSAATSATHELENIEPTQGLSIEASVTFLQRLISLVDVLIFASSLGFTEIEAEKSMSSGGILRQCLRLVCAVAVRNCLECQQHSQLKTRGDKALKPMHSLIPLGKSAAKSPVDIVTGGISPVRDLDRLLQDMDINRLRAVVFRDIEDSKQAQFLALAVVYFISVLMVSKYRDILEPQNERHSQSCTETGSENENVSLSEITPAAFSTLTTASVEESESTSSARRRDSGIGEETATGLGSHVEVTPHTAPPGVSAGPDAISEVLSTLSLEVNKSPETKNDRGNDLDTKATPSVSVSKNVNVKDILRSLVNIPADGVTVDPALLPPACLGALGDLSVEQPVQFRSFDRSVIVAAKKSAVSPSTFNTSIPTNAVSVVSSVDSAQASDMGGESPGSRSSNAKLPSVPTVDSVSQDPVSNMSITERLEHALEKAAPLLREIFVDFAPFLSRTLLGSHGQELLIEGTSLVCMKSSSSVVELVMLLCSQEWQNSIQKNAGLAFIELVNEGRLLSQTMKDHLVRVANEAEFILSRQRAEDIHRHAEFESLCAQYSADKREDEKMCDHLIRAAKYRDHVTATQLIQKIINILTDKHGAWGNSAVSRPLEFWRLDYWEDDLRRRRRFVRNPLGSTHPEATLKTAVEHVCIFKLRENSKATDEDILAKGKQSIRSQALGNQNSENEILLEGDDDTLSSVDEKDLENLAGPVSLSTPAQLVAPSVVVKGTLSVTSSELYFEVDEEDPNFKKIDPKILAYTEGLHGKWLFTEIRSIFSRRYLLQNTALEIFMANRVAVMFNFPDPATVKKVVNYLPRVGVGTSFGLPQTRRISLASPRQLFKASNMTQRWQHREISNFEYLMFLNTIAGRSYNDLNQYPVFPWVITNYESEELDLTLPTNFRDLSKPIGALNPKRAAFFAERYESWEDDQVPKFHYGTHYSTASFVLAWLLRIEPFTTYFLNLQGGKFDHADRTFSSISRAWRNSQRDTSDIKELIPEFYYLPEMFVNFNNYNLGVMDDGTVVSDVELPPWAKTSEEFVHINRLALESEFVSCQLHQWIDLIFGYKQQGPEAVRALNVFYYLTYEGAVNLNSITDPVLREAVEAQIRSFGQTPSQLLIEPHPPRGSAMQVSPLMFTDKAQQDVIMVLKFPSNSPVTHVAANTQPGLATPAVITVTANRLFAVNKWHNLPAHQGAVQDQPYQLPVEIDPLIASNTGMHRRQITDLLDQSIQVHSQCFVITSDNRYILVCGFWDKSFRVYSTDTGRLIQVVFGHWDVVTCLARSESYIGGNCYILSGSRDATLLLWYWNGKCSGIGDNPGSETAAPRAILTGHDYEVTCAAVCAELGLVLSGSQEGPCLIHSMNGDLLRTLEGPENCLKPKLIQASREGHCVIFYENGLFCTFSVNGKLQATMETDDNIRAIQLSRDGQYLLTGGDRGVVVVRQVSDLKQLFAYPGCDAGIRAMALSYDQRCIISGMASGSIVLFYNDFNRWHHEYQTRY
# UniProt P42338: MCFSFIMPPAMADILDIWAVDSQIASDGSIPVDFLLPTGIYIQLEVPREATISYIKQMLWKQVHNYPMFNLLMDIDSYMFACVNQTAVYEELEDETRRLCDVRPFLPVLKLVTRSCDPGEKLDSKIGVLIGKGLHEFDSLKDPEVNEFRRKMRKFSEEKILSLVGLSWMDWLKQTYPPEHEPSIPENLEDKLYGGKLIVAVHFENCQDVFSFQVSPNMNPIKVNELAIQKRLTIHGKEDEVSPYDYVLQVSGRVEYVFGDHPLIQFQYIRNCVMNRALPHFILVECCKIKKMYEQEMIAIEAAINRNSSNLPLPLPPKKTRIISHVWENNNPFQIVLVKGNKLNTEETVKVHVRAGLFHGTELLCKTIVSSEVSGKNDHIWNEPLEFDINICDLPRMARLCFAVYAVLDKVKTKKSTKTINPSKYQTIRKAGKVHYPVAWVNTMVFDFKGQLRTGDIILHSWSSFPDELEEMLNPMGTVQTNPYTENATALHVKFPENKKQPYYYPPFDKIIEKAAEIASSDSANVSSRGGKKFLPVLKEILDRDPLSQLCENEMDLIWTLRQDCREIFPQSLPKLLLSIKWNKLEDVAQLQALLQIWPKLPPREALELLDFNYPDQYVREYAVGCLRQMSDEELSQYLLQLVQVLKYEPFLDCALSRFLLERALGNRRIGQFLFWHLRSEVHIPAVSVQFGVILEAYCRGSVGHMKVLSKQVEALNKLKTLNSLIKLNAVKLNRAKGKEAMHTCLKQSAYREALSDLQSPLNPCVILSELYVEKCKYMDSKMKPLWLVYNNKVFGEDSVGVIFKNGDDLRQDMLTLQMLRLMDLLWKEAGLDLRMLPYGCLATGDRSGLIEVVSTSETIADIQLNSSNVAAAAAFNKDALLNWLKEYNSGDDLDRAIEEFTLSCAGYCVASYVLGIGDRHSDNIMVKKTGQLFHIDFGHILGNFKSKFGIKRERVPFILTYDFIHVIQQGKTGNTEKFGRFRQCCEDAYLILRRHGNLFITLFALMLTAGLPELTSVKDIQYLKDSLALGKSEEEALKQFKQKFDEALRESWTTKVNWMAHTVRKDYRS
# ± gives the standard deviation of the averaged measurements. Only a part is listed here, and it is no random draw.
# Compound: Nc1ncnc2c1ncn2[C@@H]1O[C@H](COP(=O)(O)OP(=O)(O)OP(=O)(O)O)[C@@H](O)[C@H]1O [adenosine triphosphate]
# Assay: NP40-soluble protein abundance relative to vehicle (solubility fold change) (ratio); higher = more soluble protein in presence of ATP
# Procedure, shortened: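 Jurkat crude lysate (Dounce-homogenised) was treated with eight concentrations from 0.1 to 10 mM for 10 min at room temperature, then 3 min at 37 °C. It was solubilised with 0.8% NP40 and benzonase (60 min, 4 °C) and ultracentrifuged, and the supernatant was TMT-labelled for LC-MS/MS. Intensities were vsn-normalised, and the value is the fold change against the NP40-processed vehicle per replicate, from three independent experiments.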
Target,NP40-soluble protein abundance (concentration: 1mM),NP40-soluble protein abundance (concentration: 2mM),NP40-soluble protein abundance (concentration: 4mM),NP40-soluble protein abundance (concentration: 6mM),NP40-soluble protein abundance (concentration: 8mM),NP40-soluble protein abundance (concentration: 10mM)
RANGAP1 (UniProt P46060),0.9641 ± 0.0018,0.9669 ± 0.0037,0.951 ± 0.017,1.02 ± 0.022,0.964 ± 0.027,0.985 ± 0.033
RPIA (UniProt P49247),0.962 ± 0.037,0.97 ± 0.039,0.928 ± 0.053,0.927 ± 0.092,0.941 ± 0.031,0.946 ± 0.022
CAPZA1 (UniProt P52907),1.01 ± 0.029,0.977 ± 0.033,0.962 ± 0.017,1.01 ± 0.038,0.964 ± 0.041,0.954 ± 0.046
GCLC (UniProt P48506),1.03 ± 0.064,0.993 ± 0.067,0.996 ± 0.06,0.973 ± 0.1,1.02 ± 0.052,0.983 ± 0.057
NEK4 (UniProt P51957),1.01 ± 0.11,1.11 ± 0.061,1.11 ± 0.12,1.1 ± 0.12,1.11 ± 0.14,1.15 ± 0.074
NCBP2 (UniProt P52298),0.975 ± 0.05,1 ± 0.031,1.01 ± 0.027,1.06 ± 0.059,1.08 ± 0.029,1.09 ± 0.026
UniProt P40429 and related entries,0.952 ± 0.022,0.887 ± 0.12,0.789 ± 0.14,0.692 ± 0.11,0.533 ± 0.11,0.823 ± 0.12
NOTCH1 (UniProt P46531),0.966 ± 0.064,0.974 ± 0.053,0.945 ± 0.027,0.993 ± 0.02,0.926 ± 0.036,0.949 ± 0.018
RGS19 (UniProt P49795),1 ± 0.025,0.954 ± 0.021,0.921 ± 0.049,0.954 ± 0.056,0.981 ± 0.045,0.978 ± 0.048
GNPDA1 (UniProt P46926),0.988 ± 0.15,0.962 ± 0.11,0.925 ± 0.073,0.878 ± 0.14,0.912 ± 0.0098,0.956 ± 0.087
CAPZA2 (UniProt P47755),1.04 ± 0.011,1.03 ± 0.04,0.982 ± 0.016,1 ± 0.035,0.999 ± 0.043,0.976 ± 0.051
UniProt P49840,0.943 ± 0.057,0.915 ± 0.044,0.877 ± 0.037,0.9 ± 0.056,0.899 ± 0.078,0.9017 ± 0.0066
EPS15 (UniProt P42566),0.95 ± 0.028,0.971 ± 0.014,0.941 ± 0.022,0.983 ± 0.034,0.922 ± 0.027,0.938 ± 0.027
LRPPRC (UniProt P42704),0.929 ± 0.071,1 ± 0.11,0.922 ± 0.021,0.854 ± 0.02,0.955 ± 0.026,0.921 ± 0.055
UniProt P51649 and related entries,0.985 ± 0.024,0.984 ± 0.011,0.959 ± 0.029,0.988 ± 0.027,0.981 ± 0.018,0.963 ± 0.027
EIF2B2 (UniProt P49770),0.972 ± 0.037,0.942 ± 0.018,0.948 ± 0.037,0.96 ± 0.016,1 ± 0.013,0.972 ± 0.02
TSFM (UniProt P43897),0.963 ± 0.083,0.972 ± 0.024,0.953 ± 0.057,0.982 ± 0.065,0.938 ± 0.026,0.928 ± 0.032
SLC26A2 (UniProt P50443),0.962 ± 0.12,0.986 ± 0.098,0.88 ± 0.073,0.949 ± 0.071,0.996 ± 0.15,0.984 ± 0.14
UniProt P41223,1.04 ± 0.049,1.06 ± 0.024,1.1 ± 0.063,1.09 ± 0.075,1.18 ± 0.064,1.18 ± 0.036
UniProt P41214,1.02 ± 0.027,1 ± 0.033,0.992 ± 0.022,1.01 ± 0.052,0.998 ± 0.02,1 ± 0.027
PCYT1A (UniProt P49585),0.978 ± 0.023,0.97 ± 0.028,0.9701 ± 0.0077,0.974 ± 0.053,0.948 ± 0.025,0.96 ± 0.029
UniProt P50851 and related entries,1.02 ± 0.048,0.998 ± 0.029,0.995 ± 0.03,0.947 ± 0.031,0.985 ± 0.015,0.966 ± 0.025
TALDO1 (UniProt P37837),0.937 ± 0.028,0.914 ± 0.018,0.883 ± 0.012,0.94 ± 0.023,0.893 ± 0.03,0.866 ± 0.05
PIK3CB (UniProt P42338),1.03 ± 0.17,0.972 ± 0.11,1.03 ± 0.1,0.995 ± 0.17,1.06 ± 0.19,0.984 ± 0.15
PREP (UniProt P48147),1.06 ± 0.1,0.999 ± 0.09,0.992 ± 0.074,0.957 ± 0.13,1.03 ± 0.083,0.968 ± 0.071
MARCKSL1 (UniProt P49006),0.809 ± 0.11,0.814 ± 0.17,0.784 ± 0.17,0.79 ± 0.15,0.72 ± 0.098,0.761 ± 0.23
RPL34 (UniProt P49207),0.911 ± 0.13,0.837 ± 0.12,0.788 ± 0.12,0.738 ± 0.1,0.554 ± 0.11,0.775 ± 0.061
SSR4 (UniProt P51571),1.02 ± 0.048,1.02 ± 0.044,0.992 ± 0.066,0.972 ± 0.082,1.01 ± 0.071,0.983 ± 0.035
P39880-3|Q13948 and related entries (UniProt Q13948+P39880),0.951 ± 0.058,0.953 ± 0.029,0.963 ± 0.03,0.998 ± 0.053,0.951 ± 0.026,0.958 ± 0.017
SRP14 (UniProt P37108),0.909 ± 0.061,0.912 ± 0.045,0.836 ± 0.015,0.966 ± 0.073,0.901 ± 0.014,0.842 ± 0.1

# Some of the entries above in a different format.
Target	NP40-soluble protein abundance (concentration: 1mM)	NP40-soluble protein abundance (concentration: 2mM)	NP40-soluble protein abundance (concentration: 4mM)	NP40-soluble protein abundance (concentration: 6mM)	NP40-soluble protein abundance (concentration: 8mM)	NP40-soluble protein abundance (concentration: 10mM)
PIK3CB (UniProt P42338)	1.03 ± 0.17	0.972 ± 0.11	1.03 ± 0.1	0.995 ± 0.17	1.06 ± 0.19	0.984 ± 0.15
PREP (UniProt P48147)	1.06 ± 0.1	0.999 ± 0.09	0.992 ± 0.074	0.957 ± 0.13	1.03 ± 0.083	0.968 ± 0.071
